Assay results taken from paper PMC3900384.
No constants are given. Whether binding was seen depends on the method and setting. Binding calls can cover weak binding; strength is not graded here. For some assays here: In cells and extracts the contact can be indirect. For some assays here: Where a sequence is shown, tags or fusion partners need not be part of it.

T1: AtRING1a (Arabidopsis thaliana) (UniProt Q9FKW0)
T1 sequence: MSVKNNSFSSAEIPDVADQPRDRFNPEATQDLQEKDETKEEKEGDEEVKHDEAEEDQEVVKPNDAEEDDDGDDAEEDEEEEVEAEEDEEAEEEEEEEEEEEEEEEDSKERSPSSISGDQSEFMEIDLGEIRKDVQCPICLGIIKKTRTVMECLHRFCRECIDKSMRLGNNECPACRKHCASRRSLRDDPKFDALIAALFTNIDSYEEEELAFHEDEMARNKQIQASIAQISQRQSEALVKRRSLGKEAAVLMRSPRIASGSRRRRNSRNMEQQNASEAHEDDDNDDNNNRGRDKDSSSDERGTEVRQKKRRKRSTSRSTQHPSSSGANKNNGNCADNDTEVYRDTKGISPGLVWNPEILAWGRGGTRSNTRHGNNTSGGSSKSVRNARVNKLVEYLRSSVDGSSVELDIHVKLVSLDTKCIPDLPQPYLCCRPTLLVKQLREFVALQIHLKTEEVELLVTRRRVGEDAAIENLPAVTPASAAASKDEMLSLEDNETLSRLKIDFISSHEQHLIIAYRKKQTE

B1: AL6 (protein, UniProt Q8S8M9 1-256)
chain: MEGITHPIPRTVEEVFSDFRGRRAGLIKALTNDMVKFYQTCDPEKENLCLYGLPNETWEVNLPVEEVPPELPEPALGINFARDGMQEKDWVSLVAVHSDSWLLSVAFYFGARFGFGKNERKRLFQMINELPTIFEVVSGNAKQSKDLSVNNNNSKSKPSGVKSRQSESLSKVAKMSSPPPKEEEEEEDESEDESEDDEQGAVCGACGDNYGTDEFWICCDACEKWFHGKCVKITPAKAEHIKHYKCPTCSNKRARP
B2: AL7 (protein, UniProt Q8LA16 1-252)
chain: MEGIQHPIPRTVEEVFSDFRGRRAGLIKALSTDVQKFYHQCDPEKENLCLYGLPNETWEVNLPVEEVPPELPEPALGINFARDGMQEKDWISLVAVHSDSWLISVAFYFGARFGFGKNERKRLFQMINDLPTIFEVVTGNAKQSKDQSANHNSSRSKSSGGKPRHSESHTKASKMSPPPRKEDESGDEDEDDEQGAVCGACGDNYGGDEFWICCDACEKWFHGKCVKITPAKAEHIKHYKCPSCTTSKKMKA
B3: AtRING1aN (aa 1-218) (domain or fragment, UniProt Q9FKW0 1-218)
chain: MSVKNNSFSSAEIPDVADQPRDRFNPEATQDLQEKDETKEEKEGDEEVKHDEAEEDQEVVKPNDAEEDDDGDDAEEDEEEEVEAEEDEEAEEEEEEEEEEEEEEEDSKERSPSSISGDQSEFMEIDLGEIRKDVQCPICLGIIKKTRTVMECLHRFCRECIDKSMRLGNNECPACRKHCASRRSLRDDPKFDALIAALFTNIDSYEEEELAFHEDEMA
B4: GFP-AL6 (protein, UniProt Q8S8M9 1-256)
chain: B1 chain
B5: RFP-AL1 (protein, UniProt Q9FFF5 1-241)
chain: MAAESSNPRTVEEIFKDFSGRRSGFLRALSVDVDKFYSLCDPEMENLCLYGHPNGTWEVNLPAEEVPPELPEPALGINFARDGMQRKDWLSLVAVHSDCWLLSVSSYFGARLNRNERKRLFSLINDLPTLFEVVTGRKPIKDGKPSMDLGSKSRNGVKRSIEGQTKSTPKLMEESYEDEDDEHGDTLCGSCGGNYTNDEFWICCDVCERWYHGKCVKITPAKAESIKQYKCPSCCTKKGRQ
B6: RFP-AL2 (protein, UniProt Q9SRM4 1-246)
chain: MAAAAVSSNPRTVEEIFKDYSARRAALLRALTKDVDDFYSQCDPEKENLCLYGHPNESWEVNLPAEEVPPELPEPALGINFARDGMQRKDWLSLVAVHSDCWLLSVSFYFGARLNRNERKRLFSLINDLPTLFDVVTGRKAMKDNKPSSDSGSKSRNGTKRSIDGQTKSSTPKLMEESYEEEEEEDEHGDTLCGSCGGHYTNEEFWICCDVCERWYHGKCVKITPAKAESIKQYKCPPCCAKKGRQ
B7: RFP-AL6 (protein, UniProt Q8S8M9 1-256)
chain: B1 chain
B8: RFP-AL7 (protein, UniProt Q8LA16 1-252)
chain: B2 chain
B9: AtRING1a-RFP (protein, UniProt Q9FKW0 1-522)
chain: T1 sequence
B10: AL1 (protein, UniProt Q9FFF5 1-241)
chain: B5 chain
B11: AL2 (protein, UniProt Q9SRM4 1-246)
chain: B6 chain
B12: AL5 (protein, UniProt Q5XEM9 1-260)
chain: MEGGTAHYSPRTVEEVFRDFKGRRAGIIQALTTDVEDFFQQCDPEKQNLCLYGFPNEVWEVNLPAEEVPPELPEPALGINFARDGMQERNWLSLVAVHSDAWLLSVSFYFGSRFGFDRADRKRLFSMINEVPTVYEVVTGNAEKQTKEMPSSANQNGNRSKSNSKMRGLESKSSKTIHAKDEEEGLELEEGEEEEDEDEDEHGETLCGACGDNYASDEFWICCDMCEKWFHGECVKITPARAEHIKHYKCPTCSNKRARP

How the values were obtained:
[1] = biological target: T1, AtRING1a (Arabidopsis thaliana); assay: two-hybrid; pairwise tests of pGBKT7 and pGADT7 constructs in S. cerevisiae PJ69-4a; growth on SD lacking Leu, Trp and Ade (SD-LTA)
[2] = biological target: AtBMI1b (Arabidopsis thaliana); assay: as above
[3] = biological target: GST-AtBMI1a (Arabidopsis thaliana); assay: pull-down; agarose beads coated with GST or GST fusion protein, incubated with total protein extracts of two-week-old transgenic Arabidopsis seedlings; Western blot with anti-FLAG or anti-GFP; only the target purified
[4] = biological target: GST-AtBMI1b (Arabidopsis thaliana); assay: as above
[5] = biological target: AtBMI1b-GFP (Arabidopsis thaliana); assay: FRET or BRET; FLIM: GFP and RFP fusions transiently co-expressed in Nicotiana benthamiana leaves; decrease of GFP fluorescence lifetime in nuclei, more than 5% counted as interaction

Molecule	binding [2]	binding [5]	other results
AtBMI1b (Arabidopsis thaliana)			binding [1]: binds
B1	binds		
B2	binds		
B3	binds		
B4			binding [3]: binds; binding [4]: binds
B5		binds	
B6		binds	
B7		binds	
B8		binds	
B9		binds	
B10	binds		
B11	binds		
B12	binds		
